Assay results reported in patent US20120093789.
A weaker result is weaker than the reference pair of the same experiment.

Chains of the proteins cited; added tags and fusions are not shown.
UniProt P42582, whole entry: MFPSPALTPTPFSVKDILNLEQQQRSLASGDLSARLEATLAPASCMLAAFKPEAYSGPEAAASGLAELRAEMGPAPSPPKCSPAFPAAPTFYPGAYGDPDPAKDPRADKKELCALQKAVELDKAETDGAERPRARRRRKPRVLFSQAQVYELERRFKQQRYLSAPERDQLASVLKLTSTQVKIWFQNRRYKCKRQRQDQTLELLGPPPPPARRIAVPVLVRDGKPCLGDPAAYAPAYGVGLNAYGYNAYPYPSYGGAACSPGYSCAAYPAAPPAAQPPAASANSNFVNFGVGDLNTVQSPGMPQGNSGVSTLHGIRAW

Experiments:
[1] = tested on: SRF (serum response factor) with co-activator Myocd; experiment: activity in cells; settings: protein in cells, protein details: expression vectors, Cos-1 cells, only the site is given
Nkx2.5 = Nkx2.5 (UniProt P42582); experiment: activity in cells; settings: protein in cells, protein details: expression vector, Cos-1 cells, only the site is given

GGGAGCAGCCTTGCCATATAAGGGCAGGAGCCCC (double strand) [miR-143/145 enhancer SRF site, reporter WT]
activity on this sequence ([1]; luciferase, SRF weak alone, synergistic with Myocd, site within enhancer): active

GGGAAAGACTGCCAAGTGCTCGTGGCC (double strand) [miR-143/145 enhancer Nkx2.5 site WT]
activity on this sequence (Nkx2.5; Nkx2.5 independently activates enhancer luciferase reporter): active

GGGAGCAGCCTTGCTACCGCAGGGCAGGAGCCCC (double strand) [miR-143/145 enhancer SRF site, reporter mutant]
activity on this sequence ([1]; CArG mutation decreased Myocd-dependent luciferase activity): less active

GGGAAAGACTGCCGTGAGCTCGTGGCC (double strand) [miR-143/145 enhancer Nkx2.5 site mutant]
activity on this sequence (Nkx2.5; mutation of each binding site progressively decreased luciferase activity, variant of miR-143/145 enhancer Nkx2.5 site WT): less active
